Reference: PubChem BioAssay AID1259405 (NCATS, 2018)

Assay: 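Knock-downs that lift recombinant protein yield in hamster ovary cells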 (primary screen)
Cells: Chinese hamster CHO-K1 ovary cells with stable secreted eGFP expression
Reagents: single siRNA against mouse genes, 0.8 pmol siRNA per well (2 µl of 400 nM stock)
Timing: 3 days
Measurement: 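Per-well intracellular GFP measured by laser scanning cytometry, plus viability from ATP luminescence, each relative to plate median of non-targeting control wells, in %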
Direction: GFP, % of control: higher = more GFP per well, higher productivity; viability (ATP), % of control: higher = more viable cells (more ATP)
Call rule: 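a knock-down is called active if GFP reaches 120% or more of non-targeting control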
The whole screen tested about 50,000 reagents; shown is a part drawn at random. About 4,000 of them (8%) count as active. 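Mouse siRNA library applied to hamster cells; one well for each siRNA.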

Slc30a4 [SID363574902]: GFP, % of control = 55.3; viability (ATP), % of control = 63.1; Outcome = inactive
Slc30a4 [SID363575958]: GFP, % of control = 60.6; viability (ATP), % of control = 62.3; Outcome = inactive
Slc30a4 [SID363580534]: GFP, % of control = 20.8; viability (ATP), % of control = 94.2; Outcome = inactive
Zscan22 (zinc finger and SCAN domain containing 22) [SID363573340]: GFP, % of control = 79.7; viability (ATP), % of control = 94.5; Outcome = inactive
Zscan22 (zinc finger and SCAN domain containing 22) [SID363588579]: GFP, % of control = 92.6; viability (ATP), % of control = 85.9; Outcome = inactive
Ccni (cyclin I) [SID363573503]: GFP, % of control = 68.2; viability (ATP), % of control = 73.8; Outcome = inactive
Ccni (cyclin I) [SID363588742]: GFP, % of control = 79.1; viability (ATP), % of control = 103; Outcome = inactive
Or2b4 (olfactory receptor family 2 subfamily B member 4) [SID363554176]: GFP, % of control = 88.1; viability (ATP), % of control = 45.1; Outcome = inactive
Or2b4 (olfactory receptor family 2 subfamily B member 4) [SID363567623]: GFP, % of control = 43.8; viability (ATP), % of control = 61; Outcome = inactive
Or2b4 (olfactory receptor family 2 subfamily B member 4) [SID363584980]: GFP, % of control = 44; viability (ATP), % of control = 63.3; Outcome = inactive
Hmgcs2 (3-hydroxy-3-methylglutaryl-Coenzyme A synthase 2) [SID363572875]: GFP, % of control = 54.9; viability (ATP), % of control = 73.6; Outcome = inactive
Hmgcs2 (3-hydroxy-3-methylglutaryl-Coenzyme A synthase 2) [SID363577451]: GFP, % of control = 57.7; viability (ATP), % of control = 62.2; Outcome = inactive
Hmgcs2 (3-hydroxy-3-methylglutaryl-Coenzyme A synthase 2) [SID363580971]: GFP, % of control = 83.2; viability (ATP), % of control = 79.6; Outcome = inactive
Prelid3b (PRELI domain containing 3B) [SID363543678]: GFP, % of control = 76.4; viability (ATP), % of control = 85; Outcome = inactive
Prelid3b (PRELI domain containing 3B) [SID363553171]: GFP, % of control = 65.1; viability (ATP), % of control = 46.3; Outcome = inactive
Prelid3b (PRELI domain containing 3B) [SID363559019]: GFP, % of control = 84.1; viability (ATP), % of control = 86.3; Outcome = inactive
Hsd17b4 (hydroxysteroid (17-beta) dehydrogenase 4) [SID363575130]: GFP, % of control = 96.5; viability (ATP), % of control = 68.5; Outcome = inactive
Hsd17b4 (hydroxysteroid (17-beta) dehydrogenase 4) [SID363580762]: GFP, % of control = 64.4; viability (ATP), % of control = 62.3; Outcome = inactive
Hsd17b4 (hydroxysteroid (17-beta) dehydrogenase 4) [SID363582874]: GFP, % of control = 72.1; viability (ATP), % of control = 73.2; Outcome = inactive

Next part; the last 2 above are carried over.
Hsd17b4 (hydroxysteroid (17-beta) dehydrogenase 4) [SID363580762]: GFP, % of control = 64.4; viability (ATP), % of control = 62.3; Outcome = inactive
Hsd17b4 (hydroxysteroid (17-beta) dehydrogenase 4) [SID363582874]: GFP, % of control = 72.1; viability (ATP), % of control = 73.2; Outcome = inactive
Zfp944 (zinc finger protein 944) [SID363555290]: GFP, % of control = 75; viability (ATP), % of control = 70.9; Outcome = inactive
Zfp944 (zinc finger protein 944) [SID363563951]: GFP, % of control = 87.3; viability (ATP), % of control = 81.5; Outcome = inactive
Zfp944 (zinc finger protein 944) [SID363587497]: GFP, % of control = 84.4; viability (ATP), % of control = 83; Outcome = inactive
Slc7a1 [SID363574949]: GFP, % of control = 63.8; viability (ATP), % of control = 57.1; Outcome = inactive
Slc7a1 [SID363580581]: GFP, % of control = 122; viability (ATP), % of control = 82.6; Outcome = active
Slc7a1 [SID363582693]: GFP, % of control = 55.4; viability (ATP), % of control = 76.8; Outcome = inactive
Thumpd3 (THUMP domain containing 3) [SID363540172]: GFP, % of control = 74.9; viability (ATP), % of control = 79.3; Outcome = inactive
Thumpd3 (THUMP domain containing 3) [SID363561473]: GFP, % of control = 79; viability (ATP), % of control = 87.3; Outcome = inactive
Thumpd3 (THUMP domain containing 3) [SID363564509]: GFP, % of control = 66.8; viability (ATP), % of control = 83.7; Outcome = inactive
Ptprj (protein tyrosine phosphatase receptor type J) [SID363575063]: GFP, % of control = 87.7; viability (ATP), % of control = 95.5; Outcome = inactive
Ptprj (protein tyrosine phosphatase receptor type J) [SID363580695]: GFP, % of control = 98.2; viability (ATP), % of control = 77.6; Outcome = inactive
Ptprj (protein tyrosine phosphatase receptor type J) [SID363582807]: GFP, % of control = 106; viability (ATP), % of control = 90.1; Outcome = inactive
Wbp1l (WW domain binding protein 1 like) [SID363539783]: GFP, % of control = 75.1; viability (ATP), % of control = 88.1; Outcome = inactive
Wbp1l (WW domain binding protein 1 like) [SID363561084]: GFP, % of control = 82.6; viability (ATP), % of control = 72.6; Outcome = inactive
Wbp1l (WW domain binding protein 1 like) [SID363565174]: GFP, % of control = 148; viability (ATP), % of control = 63.4; Outcome = active
Dcxr (dicarbonyl L-xylulose reductase) [SID363575267]: GFP, % of control = 54.4; viability (ATP), % of control = 89; Outcome = inactive
Dcxr (dicarbonyl L-xylulose reductase) [SID363580899]: GFP, % of control = 101; viability (ATP), % of control = 73.8; Outcome = inactive
Dcxr (dicarbonyl L-xylulose reductase) [SID363583011]: GFP, % of control = 55.2; viability (ATP), % of control = 57.6; Outcome = inactive
Dgke (diacylglycerol kinase, epsilon) [SID363570951]: GFP, % of control = 60; viability (ATP), % of control = 65.1; Outcome = inactive
Etl4 (enhancer trap locus 4) [SID363542669]: GFP, % of control = 30.2; viability (ATP), % of control = 40.7; Outcome = inactive
Etl4 (enhancer trap locus 4) [SID363546186]: GFP, % of control = 33.4; viability (ATP), % of control = 48.4; Outcome = inactive
Etl4 (enhancer trap locus 4) [SID363547942]: GFP, % of control = 79; viability (ATP), % of control = 69.9; Outcome = inactive
Elp5 (elongator acetyltransferase complex subunit 5) [SID363554869]: GFP, % of control = 93.2; viability (ATP), % of control = 76.2; Outcome = inactive
Elp5 (elongator acetyltransferase complex subunit 5) [SID363568316]: GFP, % of control = 5.31; viability (ATP), % of control = 9.17; Outcome = inactive
Elp5 (elongator acetyltransferase complex subunit 5) [SID363586375]: GFP, % of control = 47.9; viability (ATP), % of control = 40.1; Outcome = inactive
Exph5 (exophilin 5) [SID363555008]: GFP, % of control = 47.1; viability (ATP), % of control = 64.3; Outcome = inactive
Exph5 (exophilin 5) [SID363568455]: GFP, % of control = 58; viability (ATP), % of control = 68.5; Outcome = inactive
Exph5 (exophilin 5) [SID363586514]: GFP, % of control = 98.4; viability (ATP), % of control = 100; Outcome = inactive
Canx (calnexin) [SID363553601]: GFP, % of control = 64.9; viability (ATP), % of control = 63.2; Outcome = inactive
Canx (calnexin) [SID363561558]: GFP, % of control = 65.5; viability (ATP), % of control = 88.6; Outcome = inactive
Canx (calnexin) [SID363565296]: GFP, % of control = 49.2; viability (ATP), % of control = 68.3; Outcome = inactive
Dph7 (diphthamine biosynethesis 7) [SID363543881]: GFP, % of control = 73.3; viability (ATP), % of control = 78.4; Outcome = inactive
Dph7 (diphthamine biosynethesis 7) [SID363551617]: GFP, % of control = 78.3; viability (ATP), % of control = 53.6; Outcome = inactive
Dph7 (diphthamine biosynethesis 7) [SID363559222]: GFP, % of control = 87; viability (ATP), % of control = 82.4; Outcome = inactive
